The values below come from patent US20250263439A1 (REGENTS OF THE UNIVERSITY OF MICHIGAN, priority 2018, published 2025).

Bridge positions count the residues as written; N and C are the ends. Square brackets hold non-standard residues; d marks the D form. Peptide text beside a SMILES is read from it. I, II: the chains in the order shown. * marks the point of attachment. X1 = CC1(C)C(=CC=C2CCCC(C=CC3=[N+](CCCCCC(=O)NCCN4C(=O)CC(*)C4=O)c4ccc(S(=O)(=O)O)cc4C3(C)C)=C2Oc2ccc(S(=O)(=O)O)cc2)N(CCCCS(=O)(=O)[O-])c2ccc(S(=O)(=O)O)cc21; AEEEA = NCCOCCOCCOCC(=O)O

The test system of data set [1] is EGFR and HER2 on SKBr3 cells. The data set can be described thus: Co-localization of IRDye800 heterodimer and antibody binding on SKBr3 cells. Type of data set: cell-based, human. Particulars: merged image.
For data set [2], the system named is OE33 human xenograft tumor. The data set can be described thus: Immunofluorescence of OE33 xenograft tumor sections ex vivo. How it is done: Immunofluorescence was performed to validate target expression in sections of OE33 human xenograft tumor ex vivo.
A short description of data set [3]: general procedure: Fmoc solid-phase peptide synthesis; rink amide MBHA resin; HBTU/HOBt. Particulars: whole synthesis.
For data set [4], the system named is Barrett's neoplasia (HGD and EAC). The data set can be described thus: Confocal microscopy of human esophageal specimens ex vivo. The following applies: for AUC (ROC curve): detection of Barrett's neoplasia; for sensitivity (ROC curve) / specificity (ROC curve): detection of Barrett's neoplasia (HGD and EAC) versus pathology, heterodimer at T/B ratio of 5.9. As for the experimental part: The fluorescence intensities from the human esophageal specimens were fit according to 4 histological classifications, including squamous (SQ), Barrett's esophagus (BE), high-grade dysplasia (HGD), and esophageal adenocarcinoma (EAC), and used a one-way ANOVA and used Tukey's multiple comparisons. Co-localization of peptide and antibody binding was evaluated using Pearson's correlation coefficient.
Using confocal microscopy, specific heterodimer binding to Barrett's neoplasia was validated on human specimens ex vivo. Formalin-fixed, paraffin-embedded (FFPE) specimens of human esophagus were obtained from the archived tissue bank in the Department of Pathology, University of Michigan. The tissues were cut into […], deparaffinized, and rehydrated using standard conditions. Two-step acidic and protease-based antigen retrieval was performed. The sections were blocked with protein serum for 10 min at RT followed by rinsing with PBS, and then incubated with the heterodimer (0.5 μM) for ten min in dark conditions at RT. The sections were then washed for three min 3× with PBS and further incubated sequentially with 1:200 dilution of EGFR monoclonal antibody (H11, #MA5-13070, Invitrogen) and 1:500 goat anti-mouse IgG (H+L) AF-568-labeled secondary antibody (#A-11004, Thermo Fisher Scientific), 1:500 dilution of ErbB2 primary antibody (#29D8, rabbit monoclonal antibody #2165S, Cell Signaling Inc), and 1:1000 goat anti-rabbit IgG (H+L) AF-488-labeled secondary antibody (#A11008, Life Technologies Corp). Each antibody was incubated for 1 hour at RT. Sections were washed with TBST 3× and mounted with Prolong Gold reagent containing DAPI (Invitrogen) using #1 cover glass ([…]). Confocal fluorescence microscopy was performed using DAPI, AF488, AF568 and Cy5.5 filter sets. Image quantification was performed by placing 3 boxes with dimensions of 20×20 μm^2 completely within cells found in the epithelium. Mean fluorescence intensities were measured using custom Matlab software (Mathworks). Regions of saturated intensities were avoided.

Turning to `CC1(C)C(=CC=C2CCCC(C=CC3=[N+](CCCCCC(=O)NCCN4C(=O)CC(SC[C@H](NC(=O)[C@H](CCCCNC(=O)COCCOCCOCCNC(=O)[C@H](CCC(=O)O)NC(=O)[C@H](CCCNC(=N)N)NC(=O)[C@@H]5CCCN5C(=O)[C@H](CCCCN)NC(=O)[C@H](Cc5c[nH]cn5)NC(=O)[C@H](CCCNC(=N)N)NC(=O)[C@@H](N)CCC(N)=O)NC(=O)COCCOCCOCCNC(=O)[C@H](Cc5ccccc5)NC(=O)[C@H](CCCNC(=N)N)NC(=O)[C@@H]5CCCN5C(=O)[C@H](CC(N)=O)NC(=O)[C@@H]5CCCN5C(=O)[C@H](CO)NC(=O)[C@@H](N)CCCCN)C(N)=O)C4=O)c4ccc(S(=O)(=O)O)cc4C3(C)C)=C2Oc2ccc(S(=O)(=O)O)cc2)N(CCCCS(=O)(=O)[O-])c2ccc(S(=O)(=O)O)cc21` (some centres unmarked) [QRH*-KSP*-E3-IRDye800] (I: H-KSPNPRF[AEEEA]KC(X1)-NH2 / II: H-QRHKPRE[AEEEA]; amide I:9-II:C), in data set [1], the “Pearson's correlation coefficient ρ with anti-EGFR” value was 0.58 and the “Pearson's correlation coefficient ρ with anti-HER2” value turned out to be 0.65. In addition, in data set [2], the “co-localization ρ with anti-EGFR” value amounted to 0.45 and the “co-localization ρ with anti-HER2” value was 0.62.
In data set [3], “KSP*-GGGSK-Cy5.5 (KSPNPRF; GGGSK linker, Cy5.5)” came in with an isolated yield of 50.9%. Further, the “final HPLC purity” value in data set [3] (280 nm) is on record as over 95%; in data set [3] (Analytical HPLC with C18 column at 280 nm), over 98%.
In the case of “KSP*-GGGSK-Cy5.5 (KSPNPRF; GGGSK linker, Cy5.5) [KSP*-Cy5.5]”, in data set [4], the “AUC (ROC curve)” value is listed as 0.91, the “sensitivity (ROC curve)” value is 85% and the “specificity (ROC curve)” value came out at 79%.
“QRH*-GGGSK-Cy5.5 (QRHKPRE; GGGSK linker, Cy5.5)” yielded an isolated yield in data set [3] of 61.8%. Further, in data set [3] (280 nm), the “final HPLC purity” value is over 95%.
With “QRH*-GGGSK-Cy5.5 (QRHKPRE; GGGSK linker, Cy5.5) [QRH*-Cy5.5]”, in data set [4], the “AUC (ROC curve)” value came to 0.79, the “sensitivity (ROC curve)” value was found to be 74% and the “specificity (ROC curve)” value is listed as 69%.
With QRH*-KSP*-Hex-Cy5.5, the isolated yield in data set [3] is 38.3%. The “final HPLC purity” value in data set [3] (280 nm) is reported as over 95%.
As to “heterodimer of QRHKPRE (SEQ ID NO: 1) and KSPNPRF (SEQ ID NO: 2) with E3 (triethyleneglycol) linker, Cy5.5 label [QRH*-KSP*-E3-Cy5.5]”, in data set [4], the “AUC (ROC curve)” value came out at 0.95, the “sensitivity (ROC curve)” value came out at 88% and the “specificity (ROC curve)” value is 87%.
